AC50 data for 54 molecules are collected here from PubChem BioAssay AID1487 (National Center for Advancing Translational Sciences (NCATS), 2009).

The nature of this assay: qHTS Assay for Modulators of Lamin A Splicing. As to conditions: HeLa LMNA splicing GFP/RFP minigene ratio, 48 h. A digest of the protocol: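 S3 HeLa cells stably expressing lamin A-EGFP splicing minigene plus DsRed2, 600 cells/well, 48 h compound exposure at 37C. Laser-scanning cytometry; analysed as GFP (500-530 nm)/RFP (575-640 nm) total intensity ratio; 0.5% DMSO vehicle.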
(In general: Quantitative high-throughput screening tests each substance at several concentrations.)

[1] abbreviates: measured here: GFP splicing reporter channel.
Setting [2] is: measured here: RFP viability control channel.

The other results are listed elsewhere or left out. Further columns of the screen follow, without active or inactive calls. Compounds called inactive in the main read-out are mostly missing here. Words in brackets tell the shape of the fitted curve; partial curves, single points and poor fits give uncertain potencies.

As usually defined, the AC50 is the concentration at which the activity in the assay is half-maximal. Take `CCP(=O)(CC)C(C)(C)CP(=O)(c1ccccc1)c1ccccc1`: the AC50 under setting [1] was 0.0355 µM [rising, full curve, poor fit].
In the case of `COc1ccc(CCNC(=O)c2ccc(N(C)S(=O)(=O)c3ccc(C)cc3)cc2)cc1`, the AC50 was 0.02 µM [falling, full curve, poor fit] under setting [1] and 0.0112 µM [falling, full curve, poor fit] under setting [2].
On to `Cn1c(=O)c2c(c3ccccc31)OC(C)(C)CC2`, for which the half-maximal activity concentration (AC50) reads like this: under setting [1], 15.8 µM [rising, partial curve, poor fit]; under setting [2], 22.4 µM [rising, single point].
Take `c1ccc(-c2csc(Nc3ccc4c(c3)OCCO4)n2)cc1`: the AC50 under setting [1] was 12.6 µM [rising, single point] and the AC50 under setting [2] was 15.8 µM [rising, single point].
In the case of `Cc1ccc(S(=O)(=O)c2c(C)nn(C(C)(C)C)c2OC(=O)C(C)(C)C)cc1`, under setting [1], the AC50 was 35.5 µM [rising, single point].
In the case of `CCOC(=O)c1ccc(-c2ccc(/C=C(\C#N)C(=O)Nc3ccc(C)cc3)o2)cc1`, under setting [2], the concentration at half-maximal activity (AC50) was 35.5 µM [falling, single point].
Regarding `Cc1ccc(S(=O)(=O)C(CNS(=O)(=O)c2ccc(F)c(C(F)(F)F)c2)c2ccco2)cc1` (centres undefined), the AC50 under setting [1] was 10 µM [falling, partial curve].
On to `CCC(C(=O)NC1CCCCC1)n1c(SCc2cccc(F)c2)nc2ccncc21` (centres undefined), for which the half-maximal activity concentration (AC50) under setting [2] is 1.41 µM [rising, full curve, poor fit].
Consider `O=C(NNc1c2ccccc2nc2ccccc12)c1cccc(O)c1`, for which the AC50 under setting [2] is 12.6 µM [rising, partial curve, poor fit].
With `O=C(Cn1c(O)c(/C=C2\C=Nc3ccc(Br)cc32)sc1=O)N1CCCC1`, the AC50 under setting [1] is 28.2 µM [rising, single point].
On to `Cc1ccc(SCc2[nH]nc3c2C2(C(=O)Nc4ccc(F)cc42)C(C#N)=C(N)O3)cc1` (centres undefined), for which the AC50 under setting [2] is 17.8 µM [rising, single point].
In the case of `O=S(=O)(c1ccc(Br)s1)N1CCN(c2ccccc2)CC1`, under setting [2], the AC50 is 11.2 µM [rising, single point].
`COc1ccc(COC(=O)N/N=C(\C)CC(=O)Nc2ccc(Cl)cc2)cc1`: the AC50 was 5.01 µM [falling, partial curve, poor fit] under setting [1] and 3.16 µM [falling, partial curve] under setting [2].
In the case of `O=C(Cc1ccc(-n2c(=O)c3ccccc3n(Cc3ccccc3Cl)c2=O)cc1)NCC1CCCO1` (centres undefined), the AC50 under setting [2] was 44.7 µM [falling, partial curve].
In the case of `COc1ccc(C2=Nn3c(nnc3-c3ccccn3)SC2)cc1`, under setting [2], the AC50 is 11.2 µM [rising, partial curve].
Take `COc1ccc(Cn2nnnc2C(c2cccs2)N2CCN(c3ccccc3)CC2)cc1` (centres undefined): under setting [1], the AC50 was 11.2 µM [rising, single point].
As to `CC[C@@H]1OC(=O)[C@H](C)[C@H](O[C@@H]2C[C@](C)(OC)[C@H](O)[C@H](C)O2)[C@H](C)[C@H](O[C@@H]2O[C@@H](C)C[C@@H](N(C)C)[C@@H]2O)[C@](C)(O)C[C@H](C)C(=NOCOCCOC)[C@H](C)[C@H](O)[C@]1(C)O`, the AC50 by setting is: under setting [1], 0.2 µM [falling, partial curve, poor fit]; under setting [2], 3.16 µM [falling, single point].
Take `Cc1ccc(Cl)cc1N1CCN(C(=O)CCS(=O)(=O)c2ccc3c(c2)oc(=O)n3C)CC1`: the half-maximal activity concentration (AC50) runs as follows: under setting [1], 3.55 µM [falling, partial curve, poor fit]; under setting [2], 7.94 µM [falling, full curve].
Take `Cc1cccc(CN2CCN(C(c3ccccc3)c3ccc(Cl)cc3)CC2)c1` (centres undefined): the AC50 is, setting by setting: under setting [1], 28.2 µM [rising, partial curve]; under setting [2], 12.6 µM [rising, partial curve].
As to `CCC(=O)N1c2ccccc2CC1C(=O)N1CCN(c2ccccc2F)CC1` (centres undefined), the concentration at half-maximal activity (AC50) under setting [1] is 0.0316 µM [rising, full curve, poor fit].
For `COc1cnc(NS(=O)(=O)c2ccc(N)cc2)nc1`, the AC50 is, setting by setting: under setting [1], 7.94 µM [falling, single point]; under setting [2], 12.6 µM [falling, single point].
Take `CCOC(=O)C1CCN(c2ncnc3c2c(-c2ccccc2)cn3-c2ccc(Cl)cc2)CC1`: the AC50 under setting [1] was 2.24 µM [falling, single point].
For the molecule `CN(C)c1cc[n+](CC(=O)N2c3ccccc3Sc3ccccc32)cc1`, the half-maximal activity concentration (AC50) under setting [2] is 25.1 µM [rising, single point].
`CC1CC(C)CN(C(=O)c2ccc(CSc3nc4ccncc4[nH]3)cc2)C1` (centres undefined): under setting [2], the AC50 was 12.6 µM [rising, partial curve].
As to `Fc1cccc(Nc2cc(-n3cccn3)ncn2)c1`, the AC50 by setting is: under setting [1], 7.94 µM [rising, partial curve]; under setting [2], 11.2 µM [rising, partial curve].
Turning to `Cc1cccc(NCCC(=O)c2ccc(Br)cc2)c1`, the concentration at half-maximal activity (AC50) was 35.5 µM [falling, single point] under setting [1] and 35.5 µM [falling, single point] under setting [2].
On to `CCOc1ccc(-c2cc(C(=O)O)c3ccccc3n2)c(OCC)c1`, for which the AC50 under setting [2] is 10 µM [rising, partial curve].
For the molecule `Cc1ccccc1NC(=O)C(=Cc1ccc(C(=O)O)cc1)C(=O)Nc1ccccc1C`, the AC50 under setting [1] is 0.708 µM [falling, full curve, poor fit].
With `COc1cccc(OC)c1OCCOc1ccc(C(=O)c2ccccc2)cc1`, the AC50 runs as follows: under setting [1], 0.0891 µM [rising, full curve, poor fit]; under setting [2], 0.0794 µM [rising, full curve, poor fit].
Take `Cn1cc(-c2nc3cncnc3n(CCN)c2=O)c2ccccc21`: the AC50 under setting [1] is 10 µM [falling, partial curve, poor fit].
For `CCc1ccc(CN(C)Cc2nc(COc3ccccc3)no2)nc1`, the AC50 is, setting by setting: under setting [1], 11.2 µM [falling, partial curve]; under setting [2], 7.94 µM [falling, partial curve, poor fit].
In the case of `CCc1cc2c(-c3ccccc3)cc(=O)oc2c(CN2CCOCC2)c1O`, the AC50 under setting [2] was 35.5 µM [rising, single point].
On the same count and under the same terms, the value for `CC(C)(C)C(=O)Nc1nnc(SCc2ccc(F)cc2)s1` was 35.5 µM [rising, single point].
For `CCC1CCCCN1C(=O)c1c(-c2ccccc2)noc1C` (centres undefined), under setting [2], the half-maximal activity concentration (AC50) was 35.5 µM [rising, single point].
With `COc1cc(-c2c(C#N)c(N)nc(SCc3ccncc3)c2C#N)cc(OC)c1OC`, the AC50 reads like this: under setting [1], 10 µM [rising, partial curve]; under setting [2], 14.1 µM [rising, partial curve].
With `O=C(O)CCC(=O)Nc1ccc(S(=O)(=O)Nc2nccs2)cc1`, the AC50 by setting is: under setting [1], 0.00251 µM [falling, full curve, poor fit]; under setting [2], 0.00316 µM [falling, full curve, poor fit].
As for `COc1cc(NC(=O)C2Cc3ccccc3N2C(=O)c2ccccc2)cc(OC)c1` (centres undefined), the AC50 under setting [2] is 31.6 µM [rising, partial curve, poor fit].
For `CC(CNC(=O)CCCn1c(=O)c2cccn2c2ccc(F)cc21)c1ccccc1` (centres undefined), the half-maximal activity concentration (AC50) under setting [1] was 4.47 µM [rising, partial curve].
As for `COc1ccc(C(=O)NC(=S)NCc2ccccc2)cc1OC`, under setting [2], the AC50 is 0.178 µM [falling, full curve, poor fit].
Turning to `COC1CCCCC1Nc1ccc(C)c(C)c1` (centres undefined), under setting [2], the AC50 is 5.01 µM [falling, partial curve, poor fit].
As to `O=C1C2C=CC=CC2=NC(=S)N1CCN1CCC(=C(c2ccc(F)cc2)c2ccc(F)cc2)CC1` (centres undefined), the AC50 was 0.002 µM [falling, full curve, poor fit] under setting [1] and 0.002 µM [falling, full curve, poor fit] under setting [2].
As to `CCN(C(=O)CCc1nc(-c2ccc(OC)cc2)no1)c1cc(OC)ccc1OC`, the AC50 is 35.5 µM [rising, single point] under setting [1] and 35.5 µM [rising, single point] under setting [2].
For `COc1ccc(N2CCN(c3ncnc4c3nnn4C)CC2)cc1`, under setting [2], the AC50 is 4.47 µM [falling, full curve, poor fit].
For the molecule `O=C1CSC(=S)N1/N=C/C=C/c1ccccc1`, the AC50 under setting [1] was 3.16 µM [rising, single point].
`CC1(C)Cc2c(sc3[nH]c(=S)n(Cc4ccco4)c(=O)c23)CO1`: the AC50 under setting [1] was 35.5 µM [falling, single point].
As to `CC(=O)c1c(C)[nH]c(C(=O)NCc2ccccc2Cl)c1C`, the AC50 under setting [2] is 35.5 µM [rising, single point].
For `CS(=O)(=O)N(CC(O)CON=C1c2ccccc2-c2ccccc21)c1ccc(F)cc1` (centres undefined), under setting [2], the AC50 was 11.2 µM [rising, single point].
Take `Cc1ccc(OCC(=O)N2CCN(c3nnc(-c4ccc(C)cc4)c4ccccc34)CC2)cc1`: the AC50 runs as follows: under setting [1], 22.4 µM [falling, single point]; under setting [2], 14.1 µM [falling, partial curve].
Regarding `COc1ccccc1NC(=O)C1CCCCN1S(=O)(=O)c1ccc(F)cc1` (centres undefined), the concentration at half-maximal activity (AC50) is, setting by setting: under setting [1], 10 µM [rising, partial curve]; under setting [2], 17.8 µM [rising, single point].
Turning to `CCc1cccc(C)c1NC(=O)COC(=O)Cc1ccsc1`, the concentration at half-maximal activity (AC50) by setting is: under setting [1], 3.55 µM [falling, full curve, poor fit]; under setting [2], 2.51 µM [falling, full curve, poor fit].
As to `Cc1ccc(-n2nc(C)cc2Nc2ncc(Cl)cc2Cl)cc1`, the AC50 under setting [2] is 31.6 µM [rising, single point].
In the case of `O=C(NCCc1c[nH]c2ccccc12)[C@@H]1C[C@H]1[C@@H](NP(=O)(c1ccccc1)c1ccccc1)c1ccccc1`, the AC50 under setting [2] is 11.2 µM [rising, partial curve].
Take `CC1Cc2ccccc2N1C(=O)c1cc2sccc2n1Cc1ccc(F)cc1` (centres undefined): under setting [2], the AC50 is 17.8 µM [rising, single point].
Consider `CCOC(=O)c1ccc(NC(=S)N2CCN(CCN=CC3=C(O)CC(C)(C)CC3=O)CC2)cc1`, for which the AC50 is, setting by setting: under setting [1], 1.78 µM [falling, single point]; under setting [2], 2.82 µM [falling, single point].
